Data on 1 molecule can be found in PMC6447619, “New type of interaction between the SARAH domain of the tumour suppressor RASSF1A and its mitotic kinase Aurora A” (Scientific Reports, 2019).

For the assay, the target named is RASSF1A RBD (residues 121–290) (UniProt Q9NS23). The experiment in a line: SEC; analytical gel filtration on Superose 6 10/300 GL, 100 μl of dilution series injected (RBD 1.5-17.5 μM, ∆N 4.5-35 μM, SARAH 1.5-80 μM), 25 mM HEPES pH 7.4, 300 mM NaCl; MBP-tagged constructs; dimer to monomers; both purified. (Size exclusion chromatography separates by hydrodynamic size, large species first.)

These are yes or no findings as the source states them, for the method shown.

B1: RASSF1A RBD (residues 121–290) (domain or fragment, UniProt Q9NS23-2 121-290)
chain: EPVEWETPDLSQAEIEQKIKEYNAQINSNLFMSLNKDGSYTGFIKVQLKLVRPVSVPSSKKPPSLQDARRGPGRGTSVRRRTSFYLPKDAVKHLHVLSRTRAREVIEALLRKFLVVDDPRKFALFERAERHGQVYLRKLLDDEQPLRLRLLAGPSDKALSFVLKENDSGE
In the case of B1, the binding result is on record as “no binding (tested: 1.5-17.5 μM initial concentration)”.
